Reference: PMC5676842
These are yes or no findings as the source states them, for the method shown. Binding seen in cells or lysates may run through a third protein. Some results given as binding are weak or reduced against the parent protein; the word gives no strength.

The chains behind the UniProt entries cited, without tags or fusion partners.
UniProt P41241: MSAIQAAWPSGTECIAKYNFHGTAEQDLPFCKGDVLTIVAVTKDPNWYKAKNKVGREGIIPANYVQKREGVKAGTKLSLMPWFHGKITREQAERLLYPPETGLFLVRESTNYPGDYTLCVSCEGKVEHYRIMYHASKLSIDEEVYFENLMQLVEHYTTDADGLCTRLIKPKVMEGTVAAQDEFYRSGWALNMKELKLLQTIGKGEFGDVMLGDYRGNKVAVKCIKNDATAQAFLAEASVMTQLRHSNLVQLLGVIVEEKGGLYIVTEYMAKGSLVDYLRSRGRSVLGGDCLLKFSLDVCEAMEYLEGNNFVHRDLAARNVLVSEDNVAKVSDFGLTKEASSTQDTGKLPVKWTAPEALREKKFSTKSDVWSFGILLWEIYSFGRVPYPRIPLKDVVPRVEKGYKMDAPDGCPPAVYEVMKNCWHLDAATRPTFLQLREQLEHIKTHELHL

Molecular target: T1, PTPN22 (mouse (endogenous in OT-1 T cells)) (UniProt P29352)
T1 sequence: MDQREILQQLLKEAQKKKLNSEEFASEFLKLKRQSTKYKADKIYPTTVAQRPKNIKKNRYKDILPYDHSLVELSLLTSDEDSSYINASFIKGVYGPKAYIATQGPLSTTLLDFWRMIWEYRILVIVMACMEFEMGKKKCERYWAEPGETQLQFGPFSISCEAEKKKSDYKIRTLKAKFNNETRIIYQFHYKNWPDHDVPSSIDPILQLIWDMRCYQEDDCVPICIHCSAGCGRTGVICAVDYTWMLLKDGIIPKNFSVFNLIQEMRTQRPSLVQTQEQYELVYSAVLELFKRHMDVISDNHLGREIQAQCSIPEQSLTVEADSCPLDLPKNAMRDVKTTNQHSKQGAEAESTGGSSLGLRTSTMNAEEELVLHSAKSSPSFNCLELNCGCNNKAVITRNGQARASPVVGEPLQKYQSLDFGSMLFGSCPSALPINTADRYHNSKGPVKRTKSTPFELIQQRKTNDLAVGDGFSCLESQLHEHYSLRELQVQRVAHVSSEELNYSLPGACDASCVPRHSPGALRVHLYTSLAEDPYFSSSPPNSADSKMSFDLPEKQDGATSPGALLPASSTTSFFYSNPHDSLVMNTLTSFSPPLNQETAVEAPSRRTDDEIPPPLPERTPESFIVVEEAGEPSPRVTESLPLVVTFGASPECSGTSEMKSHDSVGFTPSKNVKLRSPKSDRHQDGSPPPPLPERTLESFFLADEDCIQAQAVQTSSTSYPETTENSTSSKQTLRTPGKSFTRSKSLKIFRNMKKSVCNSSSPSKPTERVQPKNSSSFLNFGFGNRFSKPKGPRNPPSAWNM
Test: co-IP; lysates of OT-1 T cells (stimulated 2 d with 0.01 uM N4, expanded 6 d in IL-2, treated 2.5 h with or without TGFβ 5 ng/ml); lysis in 1% TritonX-100, 0.5% n-dodecyl-b-D-maltoside, 50 mM Tris-HCl, 150 mM NaCl, 20 mM EDTA; immunoprecipitated with anti-Ptpn22 antibody on Dynabeads protein G, blotted for Ptpn22 and CSK

binding: binds
Substance: Csk (from UniProt P41241 1-450)
